Laboratory results published in article PMC10530652 (BME Frontiers, 2021).

Test: general procedure: Fmoc solid-phase peptide synthesis; Aminomethyl-ChemMatrix resin with Rink amide linker; DIC/Oxyma
Details: whole synthesis, analytical RP-HPLC, MALDI-TOF MS

Substance: (Pro-Phe-Gly-Nle-Lys-βAla)3
- final HPLC purity: >95%
